Laboratory results published in PubChem BioAssay AID248 (DTP/NCI, 2004).
The list shows only some results of the screen, not a fair sample: it gathers tests that were run many times, whatever their T/C, doses with no T/C, and many T/C values between a quarter and a half above the control. Other doses and runs of a compound stand elsewhere. T/C is the treated group as % of the vehicle group. Some doses have a count of surviving animals in place of a T/C: the source files T/C as zero there, which appears to mark a toxic dose or a test without result, not a measured value. Some doses without a T/C left all or most animals alive at the check, yet need not have been tolerated: survival well below the control is almost never listed, so the zero probably covers shortened survival too. Counts of survivors are from the toxicity check (mostly the fifth day) where no day follows; animals may have died later. Schedules are NCI's codes, taken here to give the interval after Q, in days (D) or hours (H), and the number of doses after X. Some schedule codes hold Z or #, which are not explained here. Where survival is the endpoint, this PubChem deposit counts one and a half times the control or more as active, and values a quarter to a half above the control carry no call in these data; other NCI protocols may use other cut-offs. Some T/C values are followed by the survivors on the day toxicity was checked, most often the fifth; without a count, all were alive then. Some entries were tested several times; their values stand side by side, smallest first.

Tested on: L1210 leukemia ip in BDF1 mice, survival T/C
Assay: NCI In Vivo Anticancer Drug Screen. Data for tumor model L1210 Leukemia (intraperitoneal) in B6D2F1 (BDF1) mice
Details: T/C endpoint: mean survival time, higher T/C = longer survival
[1] = dose: 40.0 mg/kg/injection, schedule: Q01DX001 (ip), vehicle: saline
[2] = dose: 300.0 mg/kg/injection, schedule: Q01DX001 (ip), vehicle: saline
[3] = dose: 100.0 mg/kg/injection, schedule: Q04DX002 (ip), vehicle: Klucel (hydroxypropylcellulose) (HPC)
[4] = dose: 200.0 mg/kg/injection, schedule: Q04DX002 (ip), vehicle: Klucel (hydroxypropylcellulose) (HPC)
[5] = dose: 400.0 mg/kg/injection, schedule: Q04DX002 (ip), vehicle: Klucel (hydroxypropylcellulose) (HPC)
[6] = dose: 100.0 mg/kg/injection, schedule: Q01DX009 (ip), vehicle: Klucel (hydroxypropylcellulose) (HPC)
[7] = dose: 200.0 mg/kg/injection, schedule: Q01DX009 (ip), vehicle: Klucel (hydroxypropylcellulose) (HPC)
[8] = dose: 400.0 mg/kg/injection, schedule: Q01DX009 (ip), vehicle: Klucel (hydroxypropylcellulose) (HPC)
[9] = dose: 400.0 mg/kg/injection, schedule: Q04DX003 (ip), vehicle: saline with Tween-80
[10] = dose: 100.0 mg/kg/injection, schedule: Q01DX009 (ip), vehicle: saline
[11] = dose: 200.0 mg/kg/injection, schedule: Q04DX002 (ip), vehicle: saline
[12] = dose: 400.0 mg/kg/injection, schedule: Q04DX002 (ip), vehicle: saline
[13] = dose: 400.0 mg/kg/injection, schedule: Q01DX001 (ip), vehicle: saline with Tween-80
[14] = dose: 400.0 mg/kg/injection, schedule: Q01DX001 (ip), vehicle: carboxymethylcellulose (CMC)

CC(=O)Oc1ccc[nH]c1=O
T/C (dose: 200.0 mg/kg/injection, schedule: Q01DX009 (ip), vehicle: saline): 130 % of control | T/C (dose: 400.0 mg/kg/injection, schedule: Q01DX009 (ip), vehicle: carboxymethylcellulose (CMC)): 129 % of control | T/C (dose: 400.0 mg/kg/injection, schedule: Q01DX009 (ip), vehicle: saline): 149 % of control | T/C (dose: 400.0 mg/kg/injection, schedule: Q01DX015 (ip), vehicle: saline): 138 % of control | T/C (dose: 500.0 mg/kg/injection, schedule: Q01DX009 (ip), vehicle: saline): 139 % of control | T/C (dose: 600.0 mg/kg/injection, schedule: Q01DX009 (ip), vehicle: saline): 141 and 148 % of control [5 of 6 alive] | T/C (dose: 800.0 mg/kg/injection, schedule: Q01DX009 (ip), vehicle: saline): 137 % of control | T/C (dose: 800.0 mg/kg/injection, schedule: Q01DX015 (ip), vehicle: saline): 142 % of control | survivor count (dose: 1000.0 mg/kg/injection, schedule: Q01DX009 (ip), vehicle: saline): 2 of 6 | survivor count (dose: 1200.0 mg/kg/injection, schedule: Q01DX009 (ip), vehicle: saline): 0 of 6

CCO/N=C(/C)C(C)SC#N (stereo not given)
survivor count [1]: 3 of 6

NC1(C(=O)O)CCC(N)(C(=O)O)CC1 (stereo not given)
survivor count [2]: 1 of 6

O=C(O)C12CCC(CC1)C1CCC2CC1
survivor count [3]: 1 of 3 | survivor count [4]: 0 of 3 | survivor count [5]: 0 of 3

OC(c1ccccc1)C(O)c1ccccc1 (stereo not given)
survivor count [6]: 3 of 6 | survivor count [7]: 2 of 6 | survivor count [8]: 0 of 6

CC(C)N(C(=O)/C=C/C(=O)N(C(C)C)C(C)C)C(C)C
survivor count [9]: 1 of 3

CC1=NCCN1CCN=C(N)CCl
survivor count [10]: 1 of 3 | survivor count (dose: 100.0 mg/kg/injection, schedule: Q04DX002 (ip), vehicle: saline): 3 of 3 | survivor count [11]: 0 of 3 | survivor count [12]: 1 of 3

O=C1C=C(Nc2ccc(O)cc2)c2ccccc2C1=O
survivor count (dose: 50.0 mg/kg/injection, schedule: Q01DX009 (ip), vehicle: saline): 4 of 6 | survivor count [10]: 1 of 6 | survivor count (dose: 200.0 mg/kg/injection, schedule: Q04DX003 (ip), vehicle: saline): 6 of 6

CCN(CC)CCN(Cc1ccccc1)C(=O)C(O)(c1ccccc1)c1ccccc1
survivor count [13]: 1 of 3

CCCCCCCN(CCCCCCC)CC(O)c1c2ccccc2cc2c1ccc1ccccc12 (stereo not given)
survivor count [8]: 6 of 6

O=c1[nH]cnc2nccnc12
survivor count (dose: 400.0 mg/kg/injection, schedule: Q04DX003 (ip), vehicle: saline): 1 of 6 | survivor count (dose: 600.0 mg/kg/injection, schedule: Q04DX003 (ip), vehicle: saline): 1 of 6

CS(=O)(=O)Oc1nn2c(OS(C)(=O)=O)nnc2s1
T/C (dose: 20.0 mg/kg/injection, schedule: Q01DX001 (ip), vehicle: saline): 132 % of control | survivor count (dose: 30.0 mg/kg/injection, schedule: Q01DX001 (ip), vehicle: saline): 2 of 4 | survivor count [1]: 0 of 4 | survivor count (dose: 50.0 mg/kg/injection, schedule: Q01DX001 (ip), vehicle: carboxymethylcellulose (CMC)): 0 of 4 | survivor count (dose: 80.0 mg/kg/injection, schedule: Q01DX001 (ip), vehicle: saline): 0 of 4 | survivor count (dose: 100.0 mg/kg/injection, schedule: Q01DX001 (ip), vehicle: carboxymethylcellulose (CMC)): 0 of 4 | survivor count (dose: 200.0 mg/kg/injection, schedule: Q01DX001 (ip), vehicle: carboxymethylcellulose (CMC)): 0 of 4 | survivor count [14]: 0 of 4

COC(=O)[CH](C[N+](=O)[O-])[Hg][Cl] (stereo not given)
survivor count (dose: 12.5 mg/kg/injection, schedule: Q01DX009 (ip), vehicle: saline): 3 of 6

NNC(=O)c1ccc(Cl)cc1Nc1ccc(Cl)cc1
survivor count (dose: 200.0 mg/kg/injection, schedule: Q01DX001 (ip), vehicle: Klucel (hydroxypropylcellulose) (HPC)): 1 of 6 | survivor count (dose: 400.0 mg/kg/injection, schedule: Q01DX001 (ip), vehicle: Klucel (hydroxypropylcellulose) (HPC)): 0 of 6

Cc1nc(N)nc(N)c1[N+](=O)[O-]
survivor count (dose: 500.0 mg/kg/injection, schedule: Q01DX Z (oral), vehicle: methylcellulose (MC)): 3 of 6

[Co+2].[N-]=Cc1ccccc1O.[N-]=Cc1ccccc1O
survivor count (dose: 200.0 mg/kg/injection, schedule: Q04DX003 (ip), vehicle: Klucel (hydroxypropylcellulose) (HPC)): 0 of 6 | survivor count (dose: 400.0 mg/kg/injection, schedule: Q04DX003 (ip), vehicle: Klucel (hydroxypropylcellulose) (HPC)): 0 of 6

CSc1nnc2scnn12
survivor count [14]: 0 of 4

COc1cc(/C=C/[N+](=O)[O-])ccc1O
survivor count [7]: 4 of 6 | survivor count [8]: 0 of 6

COc1ccccc1NCc1cccc([N+](=O)[O-])c1
survivor count [8]: 5 of 6

Cc1cccc(C)c1NC(=O)C[N+](C)(C)N
survivor count [12]: 0 of 3

CCSc1ncnc2c1nnn2C1OC(CO)C(O)C1O (stereo not given)
survivor count [13]: 0 of 6

O=COC1CC2CC1C1CCCC21 (stereo not given)
survivor count [9]: 5 of 6

Nc1c(Cl)cc(S(N)(=O)=O)cc1Cl
survivor count (dose: 400.0 mg/kg/injection, schedule: Q01DX009 (ip), vehicle: other): 3 of 6

N#CC1(NC(=O)CCl)CCCCC1
survivor count (dose: 400.0 mg/kg/injection, schedule: Q01DX001 (ip), vehicle: other): 0 of 4

COc1ccc(Cl)cc1NC(=O)Nc1cc(C)ccc1N=Nc1ccc(C)cc1
survivor count (dose: 100.0 mg/kg/injection, schedule: Q01DX009 (ip), vehicle: saline with Tween-80): 3 of 3 | survivor count (dose: 100.0 mg/kg/injection, schedule: Q04DX003 (ip), vehicle: saline with Tween-80): 6 of 6 | survivor count (dose: 200.0 mg/kg/injection, schedule: Q01DX001 (ip), vehicle: saline with Tween-80): 6 of 6 | survivor count (dose: 200.0 mg/kg/injection, schedule: Q04DX003 (ip), vehicle: saline with Tween-80): 6 of 6 | survivor count [9]: 6 of 6

C=CS(=O)(=O)c1ccc([N+](=O)[O-])cc1
survivor count (dose: 100.0 mg/kg/injection, schedule: Q04DX002 (ip), vehicle: saline with Tween-80): 0 of 3 | survivor count (dose: 200.0 mg/kg/injection, schedule: Q04DX002 (ip), vehicle: saline with Tween-80): 0 of 3 | survivor count (dose: 400.0 mg/kg/injection, schedule: Q04DX002 (ip), vehicle: saline with Tween-80): 0 of 3

CCC1(Cc2ccccc2)C(=O)NC(=S)N(C)C1=O (stereo not given)
survivor count (dose: 150.0 mg/kg/injection, schedule: Q01DX001 (ip), vehicle: saline): 1 of 6 | survivor count [2]: 0 of 6

c1ccc2c(C3=NCCO3)cccc2c1
survivor count [6]: 6 of 6 | survivor count [7]: 6 of 6 | survivor count [8]: 3 of 6

C[N+]1(C2CCC3CCCC2C3=O)CCCC1 (stereo not given)
survivor count [2]: 1 of 6

N=C(N)SC1c2ccccc2-c2ccccc21
survivor count [3]: 0 of 3 | survivor count [4]: 0 of 3 | survivor count [5]: 0 of 3

C[N+](C)(CC(=O)Nc1ccc(Oc2ccc(Cl)cc2)cc1)Cc1ccccc1
survivor count (dose: 50.0 mg/kg/injection, schedule: Q01DX009 (ip), vehicle: Klucel (hydroxypropylcellulose) (HPC)): 0 of 6

COc1cc2c(cc1OC)C1(NCC2)C(=O)Nc2c(C)cc(Cl)cc21 (stereo not given)
T/C [11]: 135 % of control

N=C(N)SCC(CSC(=N)N)c1cnnc2ccccc12 (stereo not given)
survivor count (dose: 200.0 mg/kg/injection, schedule: Q01DX001 (ip), vehicle: saline): 1 of 6 | survivor count (dose: 400.0 mg/kg/injection, schedule: Q01DX001 (ip), vehicle: saline): 0 of 6

[Se]=P(c1ccccc1)(c1ccccc1)c1ccccc1
survivor count [8]: 0 of 6
